According to ChEMBL document CHEMBL1153076, “Effect of flavonoids on androgen and glucocorticoid receptors based on in vitro reporter gene assay” (Bioorg Med Chem Lett, 2009):
Active and inactive are the calls of the source. No cut-off for these calls is given here.

Legend:
[1] = biological target: T1, Glucocorticoid receptor (Homo sapiens) (UniProt P04150); details: MDA-kb2
T1 sequence (whole entry): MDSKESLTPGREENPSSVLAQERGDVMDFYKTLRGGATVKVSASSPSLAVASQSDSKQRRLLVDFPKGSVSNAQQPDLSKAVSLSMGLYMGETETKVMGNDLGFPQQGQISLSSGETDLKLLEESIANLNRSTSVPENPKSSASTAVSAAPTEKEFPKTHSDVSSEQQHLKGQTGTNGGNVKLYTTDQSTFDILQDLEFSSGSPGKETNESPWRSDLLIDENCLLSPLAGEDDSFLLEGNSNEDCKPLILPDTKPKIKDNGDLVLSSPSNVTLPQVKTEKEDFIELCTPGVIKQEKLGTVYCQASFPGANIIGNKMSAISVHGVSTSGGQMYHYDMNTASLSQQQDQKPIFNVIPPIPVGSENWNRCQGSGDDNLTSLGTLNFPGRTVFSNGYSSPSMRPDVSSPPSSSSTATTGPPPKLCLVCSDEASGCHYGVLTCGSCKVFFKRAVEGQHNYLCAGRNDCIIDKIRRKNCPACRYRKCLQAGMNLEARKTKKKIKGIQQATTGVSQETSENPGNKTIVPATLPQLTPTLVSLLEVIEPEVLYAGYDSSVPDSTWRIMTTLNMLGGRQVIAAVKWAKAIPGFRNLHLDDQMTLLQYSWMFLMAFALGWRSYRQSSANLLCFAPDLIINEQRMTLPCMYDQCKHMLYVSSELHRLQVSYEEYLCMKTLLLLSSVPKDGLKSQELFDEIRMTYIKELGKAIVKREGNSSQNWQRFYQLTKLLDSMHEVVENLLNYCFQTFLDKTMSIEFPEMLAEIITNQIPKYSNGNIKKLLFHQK

[2] = biological target: T2, Androgen receptor (Homo sapiens) (UniProt P10275); details: MDA-kb2
T2 sequence (whole entry): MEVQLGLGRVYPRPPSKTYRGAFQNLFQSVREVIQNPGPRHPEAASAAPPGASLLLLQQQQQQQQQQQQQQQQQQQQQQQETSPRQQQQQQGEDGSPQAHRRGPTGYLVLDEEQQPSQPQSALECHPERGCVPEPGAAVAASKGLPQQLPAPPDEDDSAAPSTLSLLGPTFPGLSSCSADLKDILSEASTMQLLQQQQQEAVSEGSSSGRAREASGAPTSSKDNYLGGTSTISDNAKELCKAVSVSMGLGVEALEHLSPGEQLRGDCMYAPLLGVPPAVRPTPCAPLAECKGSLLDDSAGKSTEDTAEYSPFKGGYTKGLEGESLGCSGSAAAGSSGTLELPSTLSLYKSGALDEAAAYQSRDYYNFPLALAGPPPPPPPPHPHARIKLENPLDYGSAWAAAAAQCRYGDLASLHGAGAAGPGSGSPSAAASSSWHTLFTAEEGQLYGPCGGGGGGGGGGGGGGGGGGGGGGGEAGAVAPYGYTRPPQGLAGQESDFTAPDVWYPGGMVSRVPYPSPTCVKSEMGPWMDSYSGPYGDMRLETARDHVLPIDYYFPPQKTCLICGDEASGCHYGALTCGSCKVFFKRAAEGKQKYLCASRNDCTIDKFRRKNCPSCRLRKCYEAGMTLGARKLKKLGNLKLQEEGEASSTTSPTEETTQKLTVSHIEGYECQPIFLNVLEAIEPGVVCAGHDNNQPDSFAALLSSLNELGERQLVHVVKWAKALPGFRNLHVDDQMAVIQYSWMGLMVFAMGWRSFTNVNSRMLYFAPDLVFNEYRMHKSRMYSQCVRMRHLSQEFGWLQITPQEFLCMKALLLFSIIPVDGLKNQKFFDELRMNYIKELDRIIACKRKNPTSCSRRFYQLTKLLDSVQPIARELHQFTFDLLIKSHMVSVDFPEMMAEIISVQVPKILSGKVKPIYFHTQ

## O=C1CC(c2ccccc2)Oc2cc(O)ccc21 (configuration not stated)
[1]
  EC150: inactive
[2]
  EC150: inactive
